The source of these data is publication PMC5595280, “Cytotoxicity and anti-tumor effects of new ruthenium complexes on triple negative breast cancer cells” (PLoS ONE, 2017).

One series has as its system MDA-MB-231 cells. Kind of series: MTT cell proliferation assay. Type of series: cell-based, human. The conditions noted are these: ratio IC50 (MCF-10A) / IC50 (MDA-MB-231). The protocol:
MDA-MB-231 human breast tumor cells and MCF7 human breast tumor cells, obtained from Rio de Janeiro Cell Bank, were maintained at 37°C in 5% CO2 in DMEM medium containing fetal bovine serum (FBS) 10% (Vitrocell). MCF-10A, a non-tumor breast cell line, obtained from Rio de Janeiro Cell Bank, was cultivated in DMEM/F12 medium containing horse serum (HS) 5%, EGF (0.02 mg/mL); hydrocortisone (0.05 mg/mL); cholera toxin (0.001 mg/mL) and insulin (0.01 mg/mL). Both media contained penicillin (100 UI/mL), streptomycin ([…]) and L-glutamine (2 mM).
Proliferation assays were performed as described earlier. Briefly, cells lines were prepared in a concentration of 1x10^4 cells/100 μL, in complete medium (with 10% FBS), and plated on sterile 96-well plates for 24 h. The culture medium was removed from the wells and a new one, supplemented with 10% FBS and containing different concentrations of (1) [Ru(SO4)(dppb)(bipy)] (2) [Ru(CO3)(dppb)(bipy)], (3), [Ru(C2O4)(dppb)(bipy)], or (4) [Ru(CH3CO2)(dppb)(bipy)]PF6, was added to the wells. Cells were incubated for 24 h under the same conditions as described above. Cell proliferation assay was performed in comparison with untreated control. After incubation, the culture medium of each well was removed and a solution containing MTT (1 mg/mL) was added (100 μL/well). The plates were then kept at 37°C for 4 h and the formed crystals were dissolved in DMSO. The absorbance was read on an ELISA plate reader at a wavelength of 540 nm. […] The selectivity index (SI) was calculated as the ratio IC50 (MCF-10A) / IC50 (MDA-MB-231).
Each experiment was repeated three times in triplicate and a standard error mean was calculated. Shapiro-Wilk’s test was used to verify data normality. As normal distribution was present, the results were compared statistically with a one-way or two-way analysis of variance (ANOVA). […] The data were analysed and IC50 calculations were made using Hill’s equation in the GraphPad Prism software (version 6.05).
(Tetrazolium dyes change colour on reduction, which living cells bring about.)

Another series deals with ct-DNA (calf thymus DNA). Kind of series: UV-Vis spectroscopic titration with ct-DNA. In kind it is binding. The conditions noted are these: hypochromism on ct-DNA addition.

For the compound `O=S(=O)([O-])[O-].[Ru+2].c1ccc(-c2ccccn2)nc1.c1ccc(P(CCCCP(c2ccccc2)c2ccccc2)c2ccccc2)cc1` [Complex (1), [Ru(SO4)(dppb)(bipy)]], the “SI (selectivity index)” value in the series on MDA-MB-231 cells is given as below 0.21. In the series on ct-DNA (calf thymus DNA), the “% H (DNA)” value is on record as 51.45 ± 2.15%.
With `CC(=O)[O-].F[P-](F)(F)(F)(F)F.[Ru+2].c1ccc(-c2ccccn2)nc1.c1ccc(P(CCCCP(c2ccccc2)c2ccccc2)c2ccccc2)cc1` [Complex (4), [Ru(CH3CO2)(dppb)(bipy)]PF6], the “SI (selectivity index)” value in the series with MDA-MB-231 cells is 1.57. In addition, the “% H (DNA)” value in the series on ct-DNA (calf thymus DNA) is recorded as 37.80 ± 1.00%.
Take `[Cl-].[Cl-].[Ru+2].c1ccc(-c2ccccn2)nc1.c1ccc(P(CCCCP(c2ccccc2)c2ccccc2)c2ccccc2)cc1` [Precursor, cis-[RuCl2(dppb)(bipy)], reference compound]: the “SI (selectivity index)” value in the series on MDA-MB-231 cells is recorded as below 0.41.
With `O=C([O-])C(=O)[O-].[Ru+2].c1ccc(-c2ccccn2)nc1.c1ccc(P(CCCCP(c2ccccc2)c2ccccc2)c2ccccc2)cc1` [Complex (3), [Ru(C2O4)(dppb)(bipy)]], in the series on MDA-MB-231 cells, the “SI (selectivity index)” value is below 0.21. In addition, the “% H (DNA)” value with ct-DNA (calf thymus DNA) turned out to be 58.55 ± 0.92%.
Taken in the same sequence, the figures for [Ru(CO3)(dppb)(bipy)] [Complex (2)] were 0.60 and 53.04 ± 0.20%.
